Measurements reported in PubChem BioAssay AID1259405 (NCATS, 2018).

- Purpose: 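Mouse-designed siRNAs used to find CHO productivity engineering targets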 (primary screen)
- System: Chinese hamster CHO-K1 ovary cells with stable secreted eGFP expression
- Knock-down reagent: single siRNA against mouse genes, 0.8 pmol siRNA per well (2 µl of 400 nM stock)
- Duration: 3 days
- Measurement: 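Per-well intracellular GFP measured by laser scanning cytometry, plus viability from ATP luminescence, each relative to plate median of non-targeting control wells, in %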
- Scale: GFP, % of control: higher = more GFP per well, higher productivity; viability (ATP), % of control: higher = more viable cells (more ATP)
- Rule for the call: 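Called active when intracellular GFP, relative to negative control, is at or above 120%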
In all, the deposit lists about 50,000 reagents; shown is a part drawn at random. Over the whole deposit, about 4,000 (8%) are marked active. 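Mouse siRNA library applied to hamster cells; one well for each siRNA.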 A number with no mark means an inactive call. Reagents against one gene are numbered here.

{"gene": "Ddx42 (DEAD box helicase 42)", "reagent no.": 1, "GFP, % of control": 73.9, "viability (ATP), % of control": 73.2}
{"gene": "Ddx42 (DEAD box helicase 42)", "reagent no.": 2, "GFP, % of control": 93.1, "viability (ATP), % of control": 67.5}
{"gene": "Ddx42 (DEAD box helicase 42)", "reagent no.": 3, "GFP, % of control": 89.4, "viability (ATP), % of control": 87.2}
{"gene": "Mfap1a (microfibrillar-associated protein 1A)", "reagent no.": 1, "GFP, % of control": 73, "viability (ATP), % of control": 44.1}
{"gene": "Mfap1a (microfibrillar-associated protein 1A)", "reagent no.": 2, "GFP, % of control": 64.8, "viability (ATP), % of control": 87.7}
{"gene": "Mfap1a (microfibrillar-associated protein 1A)", "reagent no.": 3, "GFP, % of control": 72.5, "viability (ATP), % of control": 69}
{"gene": "Erfe (erythroferrone)", "reagent no.": 1, "GFP, % of control": 79.7, "viability (ATP), % of control": 77.8}
{"gene": "Erfe (erythroferrone)", "reagent no.": 2, "GFP, % of control": 85.1, "viability (ATP), % of control": 50.6}
{"gene": "Erfe (erythroferrone)", "reagent no.": 3, "GFP, % of control": 82.5, "viability (ATP), % of control": 35.7}
{"gene": "Umod (uromodulin)", "reagent no.": 1, "GFP, % of control": 50.2, "viability (ATP), % of control": 52.4}
{"gene": "Umod (uromodulin)", "reagent no.": 2, "GFP, % of control": 37.2, "viability (ATP), % of control": 54.3}
{"gene": "Umod (uromodulin)", "reagent no.": 3, "GFP, % of control": 71.3, "viability (ATP), % of control": 86.8}
{"gene": "Wdr4 (WD repeat domain 4)", "reagent no.": 1, "GFP, % of control": 95.8, "viability (ATP), % of control": 64.3}
{"gene": "Wdr4 (WD repeat domain 4)", "reagent no.": 2, "GFP, % of control": 77.8, "viability (ATP), % of control": 85.8}
{"gene": "Wdr4 (WD repeat domain 4)", "reagent no.": 3, "GFP, % of control": 91.3, "viability (ATP), % of control": 87.8}
{"gene": "Nmral1 (NmrA-like family domain containing 1)", "reagent no.": 1, "GFP, % of control": 91.4, "viability (ATP), % of control": 91.7}
{"gene": "Nmral1 (NmrA-like family domain containing 1)", "reagent no.": 2, "GFP, % of control": 65.5, "viability (ATP), % of control": 77.1}
{"gene": "Nmral1 (NmrA-like family domain containing 1)", "reagent no.": 3, "GFP, % of control": 67, "viability (ATP), % of control": 102}
{"gene": "Ikbkb (inhibitor of kappaB kinase beta)", "reagent no.": 1, "GFP, % of control": 87.7, "viability (ATP), % of control": 87.9}
{"gene": "Peg3 (paternally expressed 3)", "reagent no.": 1, "GFP, % of control": 31.4, "viability (ATP), % of control": 52.4}
{"gene": "Peg3 (paternally expressed 3)", "reagent no.": 2, "GFP, % of control": 79.4, "viability (ATP), % of control": 85.3}
{"gene": "Peg3 (paternally expressed 3)", "reagent no.": 3, "GFP, % of control": 59.9, "viability (ATP), % of control": 75.8}
{"gene": "Or8k17 (olfactory receptor family 8 subfamily K member 17)", "reagent no.": 1, "GFP, % of control": 43.4, "viability (ATP), % of control": 41.9}
{"gene": "Or8k17 (olfactory receptor family 8 subfamily K member 17)", "reagent no.": 2, "GFP, % of control": 117, "viability (ATP), % of control": 56.7}
{"gene": "Or8k17 (olfactory receptor family 8 subfamily K member 17)", "reagent no.": 3, "GFP, % of control": 61.5, "viability (ATP), % of control": 79.3}
{"gene": "Gspt1 (G1 to S phase transition 1)", "reagent no.": 1, "GFP, % of control": "131 (active)", "viability (ATP), % of control": 93}
{"gene": "Gspt1 (G1 to S phase transition 1)", "reagent no.": 2, "GFP, % of control": 96.7, "viability (ATP), % of control": 75.9}
{"gene": "Gspt1 (G1 to S phase transition 1)", "reagent no.": 3, "GFP, % of control": 76.5, "viability (ATP), % of control": 68.6}
{"gene": "Gria3 (glutamate receptor, ionotropic, AMPA3 (alpha 3))", "reagent no.": 1, "GFP, % of control": 59, "viability (ATP), % of control": 62.6}
{"gene": "Gria3 (glutamate receptor, ionotropic, AMPA3 (alpha 3))", "reagent no.": 2, "GFP, % of control": 83.3, "viability (ATP), % of control": 82.2}
{"gene": "Gria3 (glutamate receptor, ionotropic, AMPA3 (alpha 3))", "reagent no.": 3, "GFP, % of control": 76.7, "viability (ATP), % of control": 92.6}
{"gene": "Or8g36 (olfactory receptor family 8 subfamily G member 36)", "reagent no.": 1, "GFP, % of control": 73, "viability (ATP), % of control": 47.1}
{"gene": "Or8g36 (olfactory receptor family 8 subfamily G member 36)", "reagent no.": 2, "GFP, % of control": 58.5, "viability (ATP), % of control": 48.2}
{"gene": "Or8g36 (olfactory receptor family 8 subfamily G member 36)", "reagent no.": 3, "GFP, % of control": 55.2, "viability (ATP), % of control": 70.8}
{"gene": "Sack1g (scaffolding CK1 anchoring protein G)", "reagent no.": 1, "GFP, % of control": 68.1, "viability (ATP), % of control": 59}
{"gene": "Sack1g (scaffolding CK1 anchoring protein G)", "reagent no.": 2, "GFP, % of control": 87.9, "viability (ATP), % of control": 93.4}
{"gene": "Sack1g (scaffolding CK1 anchoring protein G)", "reagent no.": 3, "GFP, % of control": 119, "viability (ATP), % of control": 86.7}
{"gene": "Adcyap1r1 (adenylate cyclase activating polypeptide 1 receptor 1)", "reagent no.": 1, "GFP, % of control": "141 (active)", "viability (ATP), % of control": 81.1}
{"gene": "Adcyap1r1 (adenylate cyclase activating polypeptide 1 receptor 1)", "reagent no.": 2, "GFP, % of control": 116, "viability (ATP), % of control": 99}
{"gene": "Adcyap1r1 (adenylate cyclase activating polypeptide 1 receptor 1)", "reagent no.": 3, "GFP, % of control": 51, "viability (ATP), % of control": 63.8}
{"gene": "Siglecg (sialic acid binding Ig-like lectin G)", "reagent no.": 1, "GFP, % of control": 69.6, "viability (ATP), % of control": 83.1}
{"gene": "Siglecg (sialic acid binding Ig-like lectin G)", "reagent no.": 2, "GFP, % of control": 98.8, "viability (ATP), % of control": 75.5}
{"gene": "Or52p1 (olfactory receptor family 52 subfamily P member 1)", "reagent no.": 1, "GFP, % of control": 45.9, "viability (ATP), % of control": 42.4}
{"gene": "Or52p1 (olfactory receptor family 52 subfamily P member 1)", "reagent no.": 2, "GFP, % of control": 95, "viability (ATP), % of control": 85.4}
{"gene": "Or52p1 (olfactory receptor family 52 subfamily P member 1)", "reagent no.": 3, "GFP, % of control": 75.4, "viability (ATP), % of control": 110}
{"gene": "Ifit1 (interferon-induced protein with tetratricopeptide repeats 1)", "reagent no.": 1, "GFP, % of control": 69.2, "viability (ATP), % of control": 87.1}
{"gene": "Ifit1 (interferon-induced protein with tetratricopeptide repeats 1)", "reagent no.": 2, "GFP, % of control": 65.5, "viability (ATP), % of control": 75}
{"gene": "Ifit1 (interferon-induced protein with tetratricopeptide repeats 1)", "reagent no.": 3, "GFP, % of control": 116, "viability (ATP), % of control": 80}
{"gene": "Ago4 (argonaute RISC catalytic subunit 4)", "reagent no.": 1, "GFP, % of control": 70.9, "viability (ATP), % of control": 78.5}
{"gene": "Ago4 (argonaute RISC catalytic subunit 4)", "reagent no.": 2, "GFP, % of control": 89.3, "viability (ATP), % of control": 76.2}
{"gene": "Ago4 (argonaute RISC catalytic subunit 4)", "reagent no.": 3, "GFP, % of control": 110, "viability (ATP), % of control": 81.8}
{"gene": "B330016D10Rik (RIKEN cDNA B330016D10 gene)", "reagent no.": 1, "GFP, % of control": 77.6, "viability (ATP), % of control": 52.6}
{"gene": "B330016D10Rik (RIKEN cDNA B330016D10 gene)", "reagent no.": 2, "GFP, % of control": 83.9, "viability (ATP), % of control": 107}
{"gene": "B330016D10Rik (RIKEN cDNA B330016D10 gene)", "reagent no.": 3, "GFP, % of control": 52.9, "viability (ATP), % of control": 61}

Called active (from the list above):
{"gene": "Gspt1 (G1 to S phase transition 1)", "reagent no.": 1, "GFP, % of control": "131 (active)", "viability (ATP), % of control": 93}
{"gene": "Adcyap1r1 (adenylate cyclase activating polypeptide 1 receptor 1)", "reagent no.": 1, "GFP, % of control": "141 (active)", "viability (ATP), % of control": 81.1}
